Data reported in PubChem BioAssay AID504467 (National Center for Advancing Translational Sciences (NCATS), 2011).
Out of some 330,000 compounds screened, about 7,700 (2.3%) were called active. Inconclusive results, whose numbers are uncertain, are shown with a selection of clear calls. Calls follow the shape of the dose curve; as a rule, active = well fitted inhibition curve with a large enough effect; inconclusive = small, poorly fitted or top-dose-only effect, or effect the other way; inactive = flat fitted curve, though single readings scatter. Potencies of inconclusive entries are doubtful fits and often do not repeat.

Experiment: qHTS screen for small molecules that inhibit ELG1-dependent DNA repair in human embryonic kidney (HEK293T) cells expressing luciferase-tagged ELG1; also: nearly all actives have a fitted effect of over 55% in size
Settings: HEK293T ELG1-luciferase reporter, luminescence, 16 h, DNA damage induced by 5-fluorouridine; series mostly up to 46.1 µM
Procedure, shortened: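 Overnight (16 hr) co-exposure of 2,000 cells/well to 5-fluorouridine and compound at 37 °C preceded detection. Luciferase was quantified via ONE-Glo luminescence; loss of signal denotes inhibition.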
Potency is read from the fitted curve at half-maximal effect.

SMILES | Potency
CC(=O)Nc1ccc(C(=O)Nc2ccc(S(=O)(=O)N3CCCC3)cc2)cc1 | inconclusive: 23.1 µM [inhibitor, single point]
COc1ccc([N+](=O)[O-])cc1N/C(=N/S(=O)(=O)c1ccccc1)c1ccccc1 | inconclusive: 18.3 µM [inhibitor, partial curve, poor fit]
O=C(Nc1ccc2c(c1)OCCO2)C(=O)c1c[nH]c2ccccc12 | inconclusive: 0.206 µM [activator, full curve]
Cc1ccc2nc(SCC(=O)Nc3ccc(C(N)=O)cc3)[nH]c2c1 | inactive
CCCCCC(O)(CCN1CCCCC1)c1ccc(OCC)cc1 (centres undefined) | inconclusive: 23.1 µM [inhibitor, single point]
C/C(=N\NC(=O)C1COc2ccccc2O1)c1ccccn1 (centres undefined) | inconclusive: 16.4 µM [activator, single point]
COc1cccc(CC(=O)OCc2csc(CC(=O)Nc3ccccc3C)n2)c1 | inactive
COc1cc(SC#N)ccc1N=Cc1c(C)[nH]n(-c2cccc3ccccc23)c1=O | inconclusive: 29.1 µM [inhibitor, single point]
Cc1cc(C)nc(SCC(=O)N/N=C/c2cccc([N+](=O)[O-])c2)n1 | inactive
COc1ccc(NC(=O)CN(C)C(=O)c2cc(S(=O)(=O)N3CCCCCC3)ccc2OC)cc1 | inconclusive: 3.66 µM [inhibitor, partial curve, poor fit]
COc1cccc(NC(=O)CSc2nc3n[nH]c(C)c3c(=N)n2-c2cccc(OC)c2)c1 | inconclusive: 11.6 µM [inhibitor, partial curve]
O=C(NC1CCCC1)C(c1ccccc1)N(Cc1ccco1)C(=O)Cc1cccs1 (centres undefined) | inconclusive: 25.9 µM [inhibitor, single point]
COc1cccc(CCNC(=O)CCc2nnc(-c3cc(C)oc3C)o2)c1 | inactive
COc1cccc(N/C(C)=C/C(=O)c2ccc(Br)cc2)c1 | inconclusive: 14.6 µM [activator, partial curve]
CC(C)(C)c1ccccc1NC(=O)c1ccc2c(c1)SC1=NS(=O)(=O)CCN12 | active: 20.6 µM
CCC/C(C)=N\Nc1nc2c(c(=O)n(C)c(=O)n2C)n1C | inactive
COc1cccc(NC(=O)C2CSC3(C)CCC(=O)N23)c1 (centres undefined) | inconclusive: 8.2 µM [activator, single point]
N#CCCn1cc(CNC2CCC(O)CC2)c2ccccc21 (centres undefined) | inactive
O=C(O)/C(=C\c1cccc(OCc2ccccc2)c1)c1ccc(F)cc1 | inactive
CN(c1ccccc1)S(=O)(=O)c1cccc(NC(=O)CN2CCc3ccccc3C2)c1 | inconclusive: 29.1 µM [inhibitor, partial curve, poor fit]
Cc1cccc(N2CCN(C(=O)n3ccnc3)CC2)c1C | inconclusive: 16.4 µM [inhibitor, partial curve, poor fit]
CC(=O)N1CCCc2cc(S(=O)(=O)N3CCN(c4ccccn4)CC3)ccc21 | inconclusive: 7.31 µM [inhibitor, single point]

Reformatted in markdown: entries from further up.

| SMILES | Potency |
| --- | --- |
| COc1ccc([N+](=O)[O-])cc1N/C(=N/S(=O)(=O)c1ccccc1)c1ccccc1 | inconclusive: 18.3 µM [inhibitor, partial curve, poor fit] |
| CCC/C(C)=N\Nc1nc2c(c(=O)n(C)c(=O)n2C)n1C | inactive |
| N#CCCn1cc(CNC2CCC(O)CC2)c2ccccc21 (centres undefined) | inactive |
| Cc1cccc(N2CCN(C(=O)n3ccnc3)CC2)c1C | inconclusive: 16.4 µM [inhibitor, partial curve, poor fit] |

Next records

SMILES | Potency
CCCCn1c(=N)n(CC(=O)c2ccc(OC)cc2)c2ccccc21 | inconclusive: 25.9 µM [inhibitor, single point]
CCOC(=O)c1ccccc1NC(=O)CN1CCC(n2nnc3cc(C(F)(F)F)ccc32)CC1 | inactive
COc1cc(N/C(N)=N/c2nc(C)cc(C)n2)cc(OC)c1 | inconclusive: 18.3 µM [inhibitor, single point]
COc1ccc(/C=C/C(=O)NCCN2CCOCC2)cc1OC | inactive
CC(C)N1C(=O)S/C(=C\c2ccc(-c3ccc(Cl)c(C(=O)O)c3)o2)C1=O | inconclusive: 0.316 µM [activator, partial curve, poor fit]
CC1=C(CC(=O)O)c2cc(F)ccc2/C1=C\c1ccc(S(C)=O)cc1 (centres undefined) | inactive
CN(C)S(=O)(=O)N1CCN(CC(O)COc2ccc(-c3ccccc3)cc2)CC1 (centres undefined) | active: 20.6 µM
COc1ccc(CNC(=O)CS(=O)(=O)Cc2nc(-c3cccc(OC)c3)oc2C)cc1 | inactive
CCN(CC)CCCNc1nc2cc(OC)c(OC)cc2c2nc(-c3cccnc3)nn12 | inactive
Cc1cc(F)ccc1NCc1cc2c(cc1[N+](=O)[O-])OCO2 | inconclusive: 20.6 µM [activator, single point]
CCOC(=O)C1(Cc2ccccc2)CCN(Cc2cnn(-c3ccccc3)c2)CC1 | inconclusive: 23.1 µM [inhibitor, partial curve, poor fit]
Cn1c2c(c(=O)n(C)c1=O)CN(CCc1ccccc1)CN2 | inconclusive: 0.184 µM [inhibitor, partial curve, poor fit]
C=CCN1C(=O)C(Cc2ccc(Br)cc2)S/C1=N\N=C\c1ccco1 (centres undefined) | inactive
CCCc1nnc(NC(=O)CCC(=O)Nc2ccc(Cl)cc2)s1 | inconclusive: 29.1 µM [activator, single point]
C/C(N)=C(/C#N)C(=O)CSc1nc2ccccc2c(=O)n1Cc1ccc(F)cc1 | inconclusive: 29.1 µM [inhibitor, single point]
C=CCNC(=O)/C(C#N)=C/c1ccc(C)o1 | inconclusive: 29.1 µM [activator, single point]
CCCCC/C=N/NC(=O)c1[nH]c2ccc([N+](=O)[O-])cc2c1C | inactive
CS(=O)(=O)c1nc(S(=O)(=O)c2ccc(Cl)cc2)c(NCCCN2CCOCC2)s1 | inconclusive: 23.1 µM [activator, partial curve, poor fit]
N#C/C(=C/c1ccc(Br)o1)C(N)=O | inconclusive: 18.4 µM [inhibitor, partial curve]
CNC(=O)CSc1nc2ccccc2c(=O)n1-c1cc(OC)ccc1OC | inconclusive: 20.6 µM [activator, partial curve]
O=C(Oc1ccccc1/C=C\C(=O)c1cc2ccccc2o1)c1cccc(F)c1 | inconclusive: 7.31 µM [activator, partial curve, poor fit]
Cc1cc2c(c(=O)o1)C(CC(C)C)C(C#N)=C(N)O2 (centres undefined) | inconclusive: 23.1 µM [activator, single point]
